This is an account of results in PubChem BioAssay AID1347426 (Functional Genomics Laboratory (NCATS/FGL), 2020).

About 1,400 (4.5%) of roughly 31,000 sequences were called active.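 How the source made its calls: active means median seed-adjusted z-score above 1 or below -1; inactive means the rest.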 Some of the results follow.

This assay in a line: Novel Modifiers of Survival Motor Neuron (SMN) Protein: Gene Identification via Genome-wide siRNA Screen. As to conditions: HEK293T SMN2-luciferase reporter, siRNA knockdown, 72 h; actives lie on both sides. An excerpt:
Spinal muscular atrophy (SMA) is the most common neuromuscular autosomal recessive disorder and one of the leading genetic causes of infant death. SMA results from mutations inducing loss of function or deletion in the survival of motor neuron-1 gene (SMN1), leading to deficiency of the survival motor neuron (SMN) protein. Although a second nearly identical gene, SMN2, is retained in humans, its expression primarily produces an aberrantly spliced isoform that is largely unstable and quickly degraded. We performed a genome-wide RNAi screen using a cell-based reporter assay to identify genes and pathways that modulate SMN protein stability. The screen identified over 200 genes that led to the greatest increase or decrease in luciferase expression.
Using HEK293T cells stably expressing a luciferase reporter that combines the promoter and splicing based cassettes in tandem with the major portion of the native SMN2 cDNA with luciferase, we performed a genome-wide RNAi screen to identify modulators of SMN protein levels. Luciferase is expressed when full-length SMN protein is generated with luminescence signal proportional to SMN protein levels. Our luciferase-based reporter assay was used to screen Ambion Silencer Select Human Druggable Genome siRNA library (10418 genes, 3 unique siRNAs per gene) using lipid-based reverse transfection.
Briefly, 1 pmol of each siRNA was spotted to a well of a 384-well plate (Corning, Corning, NY) and 20 microL of serum-free DMEM containing […] of Lipofectamine RNAiMax (Life Technologies, Carlsbad, CA) was then added to each well. Transfected cells were maintained at 37 degrees C in 5% CO2 for 72 hours, 20 microL of ONE-Glo Reagent (Promega) was added to wells for luciferase quantification. Raw luminescence reads were normalized to Ambion(R) Silencer(R) Negative Control #2 siRNA, then log10 transformed. A robust statistical measure of median absolute deviation (MAD) to standardize siRNA activities from each screen. Common Seed Analysis was used to help prioritize clean hits as opposed to those appearing to arise from seed based off-target effects. Candidate modulators were defined as the genes having a MAD score greater than 1.0 or less than -1.0.
In general terms: A reporter such as luciferase makes a cellular process visible.
With GGAUCUUCGUAGACUAAAATT against ANKIB1, the median seed-adjusted z-score was inactive: -0.00367.

Turning to GCAUCCUAGACAUUGACAATT against TIMM44, the median seed-adjusted z-score was inactive: -0.569.

In the case of CACCUGCACCUGUUUAGAATT against F10, the median seed-adjusted z-score is inactive: -0.0033.

CAUAUGCGAUGGUGACCUATT against RFC1: the median seed-adjusted z-score is inactive: 0.

UCUUAGCUGUGAGAGAUAATT against PLUNC: the median seed-adjusted z-score is inactive: 0.254.

As for GACCUAUAGAAGAUGCUAATT against C3orf64, the median seed-adjusted z-score was inactive: 0.0771.

With CCGUAUGAAUGUAACGUAUTT against ZNF658, the median seed-adjusted z-score was inactive: 0.091.

For the sequence GCAUGAGAGAUGCUUUGGATT against KRT35, the median seed-adjusted z-score is inactive: -0.1.

For GAAUCAGAAUUGUACCUGATT against KRT38, the median seed-adjusted z-score was inactive: 0.0884.

Take AGUUGUUGGAAUGACCUUATT against CLEC5A: the median seed-adjusted z-score is active: -1.07.

Regarding CGCUUUGCCUACACGAAUATT against EBI2, the median seed-adjusted z-score is inactive: -0.312.

Take GAAUCAGCUCGAUUUCCUUTT against GP5: the median seed-adjusted z-score is inactive: -0.286.

As for UUCCCAUAUUUAUUCGGACTT against AMH, the median seed-adjusted z-score is inactive: -0.255.

Turning to GAGAGAUAUUGAUCGACUUTT against ARG2, the median seed-adjusted z-score is inactive: -0.796.

Turning to CAAAGGAAUUUUGAAGUCATT against LY9, the median seed-adjusted z-score was inactive: 0.228.

With GAACGAAUUUGUAUCUCUUTT against STAU1, the median seed-adjusted z-score was inactive: -0.143.

For CGAAGGAGAUGGUUGGUCATT against RARRES3, the median seed-adjusted z-score was inactive: -0.033.

Regarding GCGCUUCUGGUGUACGACATT against RAB17, the median seed-adjusted z-score was inactive: 0.473.

For the sequence GCCCGGACUGAAAAACUUATT against OBFC2A, the median seed-adjusted z-score is inactive: 0.406.

Regarding CCAACUACCCUAACAUCUUTT against CNGA2, the median seed-adjusted z-score was inactive: -0.0447.

As for GGUCAAUAGCAACUUAGUATT against EPHA6, the median seed-adjusted z-score is inactive: 0.0445.

For the sequence CAACAGAUGCGGAAUCGGATT against NAP1L4, the median seed-adjusted z-score was inactive: -0.244.

Regarding CACUAUUCGUUAUGAUUUUTT against EAF1, the median seed-adjusted z-score is inactive: -0.931.

AACUGGGAAUUGAGAGGUATT against SOX12: the median seed-adjusted z-score is inactive: 0.478.

Regarding AAGUUUACGUGAACAAAUUTT against POU3F2, the median seed-adjusted z-score was inactive: -0.179.

Regarding GGAUGUUCUAUGACGGGAATT against ADAM22, the median seed-adjusted z-score was inactive: 0.292.

CCGUGGUAACUAUCGUAUATT against TRIM32: the median seed-adjusted z-score is inactive: 0.109.

On to GAAAAACGGUGACCGUCAATT against MYO9B, for which the median seed-adjusted z-score is inactive: -0.0287.

Regarding CGACUGUCUUUAAUCUCUATT against HADHB, the median seed-adjusted z-score was inactive: -0.188.

For the sequence CAGAAAGGAUUGAAUGUGATT against TBXA2R, the median seed-adjusted z-score was inactive: 0.

For CAGAUGAGGCUAAUACUUATT against ITLN1, the median seed-adjusted z-score was inactive: 0.23.

For the sequence GGAAGCUUCUGUCAUGAAATT against INSRR, the median seed-adjusted z-score is inactive: 0.13.

For the sequence CGGUGUCCAUGAACAGAGATT against ERAL1, the median seed-adjusted z-score was inactive: -0.46.

Take CUACCUUACUAGCCCAUAUTT against EPS15: the median seed-adjusted z-score was inactive: -0.478.

Regarding GUGUCUGGAUGAUCUUUGUTT against OPN1MW, the median seed-adjusted z-score was inactive: -0.369.

In the case of GGAUUACAGUGUCCAAAGATT against ADRA1A, the median seed-adjusted z-score is active: -1.06.

For the sequence GACAAACCUUUUGAGCUAATT against PCDHB15, the median seed-adjusted z-score is inactive: 0.0154.

With GCCUGAUGCUUUUUGGACATT against USP11, the median seed-adjusted z-score was inactive: -0.0327.

Turning to GAAUCUCACAAUUAUGUAUTT against NCK2, the median seed-adjusted z-score is inactive: -0.397.

Consider GCUCCACGGUUGUUGACUATT against ULK4, for which the median seed-adjusted z-score is inactive: 0.0834.

As for CUGCAGCGAUGGUUACAUUTT against PPAP2A, the median seed-adjusted z-score is inactive: 0.

For CGGAGUAUACAAACCUUUATT against ATP6V0D2, the median seed-adjusted z-score is inactive: -0.0346.

For GAUUCUCCUAGGUACCCUATT against PROX2, the median seed-adjusted z-score is inactive: -0.825.

GCCCUAAACAGGAAGGUCATT against TEK: the median seed-adjusted z-score is inactive: -0.347.

On to UACCCAGCAUGGAUGCUCATT against ZNF688, for which the median seed-adjusted z-score is inactive: -0.475.

Take ACUGUGAAAUUGGACCAAUTT against RABIF: the median seed-adjusted z-score is inactive: 0.

For the sequence CCCAAUCAGUGGACACUAUTT against MCM6, the median seed-adjusted z-score is inactive: 0.266.

With GGGUUGUUUCAAUCUAACATT against HDAC2, the median seed-adjusted z-score was active: -1.27.

Consider GAUUAUCGAAUGUCUGAAATT against GLG1, for which the median seed-adjusted z-score is inactive: 0.308.

Take CACUCUUGUUGUCAAGAAATT against HNRNPCL1: the median seed-adjusted z-score is inactive: 0.

On to GAGUUCCGCCUGAUGAUGATT against DND1, for which the median seed-adjusted z-score is inactive: 0.157.

Regarding CCCGGGAGAUUUUCAGUAATT against RGS12, the median seed-adjusted z-score was inactive: 0.404.

Regarding CAAGAAUCUUAAGAUAGAATT against CD4, the median seed-adjusted z-score is inactive: -0.566.

For the sequence CCUUCAAGAUCAUUCGUGATT against VPS72, the median seed-adjusted z-score was inactive: 0.572.

With GAGUGUGGAUCGCUAUGUATT against OPRL1, the median seed-adjusted z-score is inactive: -0.9.

As to CAACUAUGCCGACACGCUUTT against PCDHGA6, the median seed-adjusted z-score was inactive: 0.0559.

Regarding CGAUAUGGAUUCCAAUACATT against AK5, the median seed-adjusted z-score is inactive: -0.0461.

In the case of GAACUUAUCUAACUCCAAATT against ADORA3, the median seed-adjusted z-score is inactive: 0.

Take CAACCUUCGUAGUGACAAUTT against SCMH1: the median seed-adjusted z-score was inactive: -0.305.

On to UGAUACUCCUGGAAUACAATT against CNTF, for which the median seed-adjusted z-score is inactive: 0.3.

On to GGAAUACCCUAGAUCAGGATT against ZKSCAN2, for which the median seed-adjusted z-score is inactive: -0.0343.

In the case of GGAACUGAAAUAAGUAUUATT against GPR113, the median seed-adjusted z-score is inactive: -0.434.

Turning to GCAACUUGAGGGAUAACUATT against PDIA3, the median seed-adjusted z-score is inactive: -0.619.

Consider GAGACGUGGUGGAACAAGATT against GRID2, for which the median seed-adjusted z-score is inactive: 0.676.

Turning to GCACAAGUACAACAAACUUTT against BLMH, the median seed-adjusted z-score is inactive: -0.156.

Consider CUUCAACUCCAGUUAGUCUTT against SP3, for which the median seed-adjusted z-score was inactive: -0.0943.

CAAGUACGAUGAGUAUGAATT against XK: the median seed-adjusted z-score is inactive: 0.403.

Turning to CGAGAGAGCUAGCUCUACATT against DDX31, the median seed-adjusted z-score was inactive: 0.0144.

On to GGCUCUUACCGCUAUCCUATT against SLC6A5, for which the median seed-adjusted z-score was inactive: -0.204.
